Measurements from article PMC7754455 (Journal of Clinical Pharmacology, 2020).
Where “and” joins values, the source holds several entries; their conditions need not be identical. Identical values can stand only once. Like-named read-outs stand apart in the source and are kept apart here.

The chains behind the UniProt entries cited, without tags or fusion partners.
UniProt P08684, whole entry: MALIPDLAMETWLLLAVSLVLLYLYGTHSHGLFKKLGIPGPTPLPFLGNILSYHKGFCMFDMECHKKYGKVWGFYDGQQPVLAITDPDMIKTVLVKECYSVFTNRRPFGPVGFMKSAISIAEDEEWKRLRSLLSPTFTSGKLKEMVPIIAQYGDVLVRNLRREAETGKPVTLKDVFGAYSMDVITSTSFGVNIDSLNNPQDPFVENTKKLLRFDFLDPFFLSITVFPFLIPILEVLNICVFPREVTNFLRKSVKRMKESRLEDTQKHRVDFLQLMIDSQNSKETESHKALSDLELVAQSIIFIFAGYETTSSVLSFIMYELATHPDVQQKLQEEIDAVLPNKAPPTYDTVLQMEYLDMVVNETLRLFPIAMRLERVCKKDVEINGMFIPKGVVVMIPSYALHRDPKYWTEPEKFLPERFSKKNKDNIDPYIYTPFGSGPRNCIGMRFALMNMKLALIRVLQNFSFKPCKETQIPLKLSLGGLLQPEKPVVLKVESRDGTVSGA

What was measured:
[1] = Clinical DDI study part 1: plasma PK of molibresib alone and with itraconazole; conditions: for AUC / Cmax / Tmax / half-life: female, human, in vivo; for AUC: AUC0‐∞; for AUC / Cmax / half-life: geometric mean (CVb%); for Tmax: median (range)
CYP3A4 = CYP3A4 (Homo sapiens, UniProt P08684)
[2] = Clinical DDI study part 2: plasma PK of molibresib alone and with rifampicin
[3] = Blood and plasma binding and permeability PBPK input parameters
[4] = Safety and tolerability in the DDI study
[5] = cited from earlier work; for Cmax, CV% Observed: patients BET115521, value (CV%), ref Piha‐Paul et al. 6
[6] = cohort 1 of part 1, initial evaluation
[7] = 10 mg, part 1 cohort 1 n = 6, molibresib 10 mg alone
[8] = 10 mg, part 1 cohort 2 n = 7, molibresib 10 mg alone
[9] = part 1 cohort 1 n = 6, molibresib 5 mg + itraconazole
[10] = part 1 cohort 2 n = 7, molibresib 5 mg + itraconazole

CCNC(=O)C[C@@H]1N=C(c2ccc(Cl)cc2)c2cc(OC)ccc2-n2c(C)nnc21 [Molibresib]
increase in AUC0‐∞ with itraconazole [1, 6]: 4 fold and 3.97 fold
increase in Cmax with itraconazole [1, 6]: 48%
AUC [1, 7]: 672 ng·h/mL
AUC [1, 8]: 683 ng·h/mL
Cmax [1, 7]: 167 ng/mL
Cmax [1, 8]: 176 ng/mL
Tmax [1, 7]: 0.52 h
Tmax [1, 8]: 0.52 h
half-life ([1]; 10 mg, t1/2, part 1 cohort 1 n = 6, molibresib 10 mg alone): 7.7 h
half-life ([1]; 10 mg, t1/2, part 1 cohort 2 n = 7, molibresib 10 mg alone): 6.6 h
AUC [1, 9]: 1330 ng·h/mL
AUC [1, 10]: 1470 ng·h/mL
Cmax [1, 9]: 124 ng/mL
Cmax [1, 10]: 161 ng/mL
Tmax [1, 9]: 1.5 h
Tmax [1, 10]: 0.52 h
half-life ([1]; t1/2, part 1 cohort 1 n = 6, molibresib 5 mg + itraconazole): 10.2 h
half-life ([1]; t1/2, part 1 cohort 2 n = 7, molibresib 5 mg + itraconazole): 12.5 h
increase in AUC0‐∞ in the presence of itraconazole ([1]; part 1 overall): 4.15 fold
increase in Cmax in the presence of itraconazole ([1]; part 1 overall): 66%
enzyme responsible for metabolism and generation of 2 major metabolites (CYP3A4; 7 CYP enzymes evaluated (CYP1A1, 2C9, 2C8, 2C19, 2D6, 2B6, 3A4)): CYP3A4 is the predominant enzyme
inhibition of molibresib metabolism by azamulin (CYP3A4; in vitro, azamulin (specific CYP3A4 inhibitor)): complete inhibition
decrease in AUC0‐∞ with rifampicin coadministration ([2]; dose-normalized, part 2): approximately 91%
decrease in Cmax with rifampicin coadministration ([2]; dose-normalized, part 2): ~80%
AUC ([2]; female, human, in vivo, 10 mg): 669 ng·h/mL
Cmax ([2]; female, human, in vivo, 10 mg): 158 ng/mL
Tmax ([2]; female, human, in vivo, 10 mg): 0.52 h
half-life ([2]; female, human, in vivo, 10 mg): 5.8 h
fraction unbound [3]: 0.2
Papp ([3]; not told): 8.4 ×10⁻⁶ cm/s
subjects reporting AEs ([4]; molibresib administered alone, both parts): 3 subjects
subjects reporting AEs ([4]; molibresib administered alone, part 1): 1 subjects
subjects reporting AEs ([4]; molibresib administered alone, part 2): 2 subjects
subjects reporting AEs ([4]; molibresib with itraconazole, part 1): 3 subjects
pKb: 7.49
Cmax, CV% Observed ([5]; 60 mg oral dose): 889.5 (24.5) ng/mL
Cmax, CV% Observed ([5]; 100 mg oral dose): 1081 (38.8) ng/mL
CYP3A4 contribution to hepatic CL ([5]; estimate from first-time in-patient study, ref BET115521): 99%
dose dependence of Cmax and AUC ([5]; patients, 2 to 125 mg once daily): dose‐proportional
time of maximum concentration (Cmax) after dosing ([5]; single and repeat oral doses, patients): ≤ 2 h
dose excreted unchanged in urine over 24 hours ([5]; used to set renal clearance in PBPK model, ref study BET115521): ~10%
